This is one part of the list.
target: T1, OsSMF1 (Oryza sativa, UniProt Q6ZLB0 1-436); assay: protein-binding microarray (RPBM); PBS, 2% BSA, 51.3 ng/ul salmon testes DNA, 50 uM zinc acetate, 200 nM TF, 25 C, 1 h; high values mean tight binding; conditions: protein: recombinant; tags: N-terminal polyhistidine and DsRed monomer fusion (pET32a); chain copies: 2; label: CyDye5-dUTP incorporated in the synthesized complementary strand; 3' TTTTT single-stranded linker to array surface; dsDNA, one strand shown
T1 sequence: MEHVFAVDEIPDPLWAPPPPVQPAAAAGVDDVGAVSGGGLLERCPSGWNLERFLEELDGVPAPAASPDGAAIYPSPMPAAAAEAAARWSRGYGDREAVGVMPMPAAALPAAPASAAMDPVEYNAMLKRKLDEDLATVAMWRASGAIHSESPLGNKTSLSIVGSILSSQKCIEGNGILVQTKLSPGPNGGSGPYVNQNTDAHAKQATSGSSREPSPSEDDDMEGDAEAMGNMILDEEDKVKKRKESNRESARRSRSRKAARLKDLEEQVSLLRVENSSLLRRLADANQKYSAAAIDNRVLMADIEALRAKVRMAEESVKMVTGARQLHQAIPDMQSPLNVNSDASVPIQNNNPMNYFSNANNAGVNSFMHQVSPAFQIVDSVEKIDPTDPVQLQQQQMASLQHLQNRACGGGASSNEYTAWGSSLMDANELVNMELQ
Summary of the method: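 Using Ni–NTA, transcription factors fused N-terminally to polyhistidine and DsRed were purified after expression in E. coli BL21-CodonPlus. These were incubated at 200 nM with a blocked, double-stranded custom Agilent array for 1 h at 25 °C in a buffer containing 50 µM zinc acetate, and the array was washed. The binding signal is per-feature fluorescence intensity (arbitrary units) on an Axon 4000B scanner.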

Sequence	binding signal
AAAATGTATGGTTGAAAATGACATCAAAGTGAACAGAACCCGGAGTCACCTAGTGCAG	3210 fluorescence intensity (a.u.)
TTATCAAGACACACGTGTGTTAACATGACTTGCGCACCTCCGGAGTCACCTAGTGCAG	3930 fluorescence intensity (a.u.)
CCGTCGTCGACGCTCTGCCTGACGCGGCACCGCATCGCCCCGGAGTCACCTAGTGCAG	12000 fluorescence intensity (a.u.)
AGTCAACGGTGTCAAACATTTCGAAACGGAGGGAGTAATACGGAGTCACCTAGTGCAG	29300 fluorescence intensity (a.u.)
AGCGATCTTACGTGTGTAGTGCTGTGTGTTTATGAGCGTCCGGAGTCACCTAGTGCAG	6100 fluorescence intensity (a.u.)
GCGTGGTGTTTTGCGTCAATTAAAGAATAATTGATGTTGCCGGAGTCACCTAGTGCAG	3400 fluorescence intensity (a.u.)
ATCTGCATTTGTTTGTTCCTGTCACCTTTGTACCATCCAACGGAGTCACCTAGTGCAG	3720 fluorescence intensity (a.u.)
TAAGAAATACTAGAAGGATCAAGATGTACAAATTCCACAACGGAGTCACCTAGTGCAG	3760 fluorescence intensity (a.u.)
GGAAGTCGAATCCCGGGCCGAGGTTGGCGACGGTGGCGGGCGGAGTCACCTAGTGCAG	3160 fluorescence intensity (a.u.)
AGTTGATAAATTTCAGAAAATTTTGATGACAAAGCAAAGCCGGAGTCACCTAGTGCAG	5580 fluorescence intensity (a.u.)
CTTCAGGGGCAAATTAGTCATTTTCCCCACATGTCAGAGCCGGAGTCACCTAGTGCAG	3370 fluorescence intensity (a.u.)
TTGTTTCTTGGTTATCACCCGCCGTGTGACTTCCGTGTTCCGGAGTCACCTAGTGCAG	3280 fluorescence intensity (a.u.)
TGTATGCACCTCAAAACTGACTCAATCTCTTCCATACCCTCGGAGTCACCTAGTGCAG	4580 fluorescence intensity (a.u.)
TCTTTTCTAAGTCATGTTAGACCAATAGAGATTTCTCAAACGGAGTCACCTAGTGCAG	27600 fluorescence intensity (a.u.)
TCTTTTCAGCCCCGCCTAGTCCGTCACCTTTCTCTGCTCGCGGAGTCACCTAGTGCAG	4080 fluorescence intensity (a.u.)
TTAAGTGTTCCACGCAAAACGAGGTGGTAATAACGTGTGACGGAGTCACCTAGTGCAG	3740 fluorescence intensity (a.u.)
CGCCGATCTGACGCGTCGTCATCAACGATTGCTAGATAGCCGGAGTCACCTAGTGCAG	6730 fluorescence intensity (a.u.)
AGGACGAGACCCCATCCAACCACCCCAGCCACGTCAGCAACGGAGTCACCTAGTGCAG	34000 fluorescence intensity (a.u.)
GTCTCCGCGTCACTGAAATTCCCCACCCACGCATCGCACCCGGAGTCACCTAGTGCAG	5360 fluorescence intensity (a.u.)
ATCCTGCATTAGCTCTCCTTCCCTTTGTTTTCAGAAGGAACGGAGTCACCTAGTGCAG	30600 fluorescence intensity (a.u.)
CTACATCATACACTGTGTAGATTCAGGATGGTGTAAGCAGCGGAGTCACCTAGTGCAG	3560 fluorescence intensity (a.u.)

Sequence	binding signal
CCGCTCCGCCTACTCTGGCCACGCGCTGACGCCGCGTCCCCGGAGTCACCTAGTGCAG	7060 fluorescence intensity (a.u.)
CCAACTACTATGACACATCACAGTAGGTCAACATCATCTCCGGAGTCACCTAGTGCAG	10200 fluorescence intensity (a.u.)
CGCGCGCGCGTGCGTGCGTGCGTGTGGGTGGGTGGGTGGACGGAGTCACCTAGTGCAG	7030 fluorescence intensity (a.u.)
CTCAAAGCAAGATCATAACGAACCTACCCACGTGTTGGCACGGAGTCACCTAGTGCAG	4560 fluorescence intensity (a.u.)
CGGAAGAGAGCTCAAGTACCGGGACGTCTTCCTCGTCTGCCGGAGTCACCTAGTGCAG	3460 fluorescence intensity (a.u.)
GGAGAACGAAGCCAGCTCATCAATCTGCGACGAGGATCATCGGAGTCACCTAGTGCAG	6590 fluorescence intensity (a.u.)
GCGGACCGCCGGTCGAACGCTCGAACCGCATTGCCAGCGTCGGAGTCACCTAGTGCAG	31200 fluorescence intensity (a.u.)
TAGAATTGTCAAGTCAATGCCACGTGGGACAAAGACCTAGCGGAGTCACCTAGTGCAG	17900 fluorescence intensity (a.u.)
AGTCGGGTAGGGTGTGCGTGTGTGCGTTCATAGGGGTGTGCGGAGTCACCTAGTGCAG	5880 fluorescence intensity (a.u.)
GCTACTACGTGTATTACGTAAGCAGGACTATGCGACCATACGGAGTCACCTAGTGCAG	4050 fluorescence intensity (a.u.)
GGGGTACAGTGACGATGACTCAACCTGCCTGGCGCGGTGCCGGAGTCACCTAGTGCAG	7580 fluorescence intensity (a.u.)
AGCGAACGTTCGCCGACTAATTATCTAGCGAATCACTCGGCGGAGTCACCTAGTGCAG	3630 fluorescence intensity (a.u.)
CCACGCTGACTCAGCAGCCACGTAGGATAAAACTGGGGTCCGGAGTCACCTAGTGCAG	34000 fluorescence intensity (a.u.)
AAAATCAAGAAATCCAGTGCAGAAAACCTAAAACACCAAACGGAGTCACCTAGTGCAG	31900 fluorescence intensity (a.u.)
GTAGAGACCAAATTACCCCTGCATCCCTTTCAATAGCTGGCGGAGTCACCTAGTGCAG	35300 fluorescence intensity (a.u.)
ACCGCCCCAATCTCCCACTACCTCCACCTCCTCCGCTCCCCGGAGTCACCTAGTGCAG	4060 fluorescence intensity (a.u.)
AACTCTTCTTCTATAATGAGTCATCTACTTCTCCGATCTCCGGAGTCACCTAGTGCAG	12900 fluorescence intensity (a.u.)
AGATCACGTTAGTCAATGTGTCATGGGCTTTGGGCCGGGTCGGAGTCACCTAGTGCAG	4220 fluorescence intensity (a.u.)
ACCAACAACAACAACAACAACGTCATGGTATACTGTCAGTCGGAGTCACCTAGTGCAG	18900 fluorescence intensity (a.u.)
GGAGATTGACACGTTGGTCTACGTGCCTATGCGTGTGTTCCGGAGTCACCTAGTGCAG	8730 fluorescence intensity (a.u.)
CATCCTCCTCCTTCGCCGCCTCCATCGGTCACCGCCGCCCCGGAGTCACCTAGTGCAG	9940 fluorescence intensity (a.u.)

2 entries drawn at random from the list so far, as already listed:
Sequence	binding signal
AGTTGATAAATTTCAGAAAATTTTGATGACAAAGCAAAGCCGGAGTCACCTAGTGCAG	5580 fluorescence intensity (a.u.)
AGGACGAGACCCCATCCAACCACCCCAGCCACGTCAGCAACGGAGTCACCTAGTGCAG	34000 fluorescence intensity (a.u.)

Reference: PMC7819943, “Rice protein-binding microarrays: a tool to detect cis-acting elements near promoter regions in rice”
